The list does not hold the whole screen: it is rich in T/C values a quarter to a half above the control, in often repeated tests (any T/C) and in doses without a T/C. Other doses and runs of a compound stand elsewhere. T/C is the treated group as % of the vehicle group. Some doses have a count of surviving animals in place of a T/C: the source holds a T/C of zero for them, seemingly a mark for toxic or unscored doses. Some survivor counts are full or nearly so, which does not show that the dose was tolerated: the source hardly ever lists a survival T/C far under the control, and the zero likely stands for such cases as well. Counts of survivors are from the toxicity check (mostly the fifth day) where no day follows; animals may have died later. Schedule codes are those of the source, read here as Q, the interval in days (D) or hours (H), X, the number of doses. Additions like (4×) say how often a value occurs here. Some entries were tested several times; their values stand side by side, smallest first. Where survival is the endpoint, this PubChem deposit counts one and a half times the control or more as active, and values a quarter to a half above the control carry no call in these data; other NCI protocols may use other cut-offs. Some T/C values are followed by the survivors on the day toxicity was checked, most often the fifth; where none is given, no animal had died by that day.
Tested on: B6C3F1 mice, B16 melanoma ip, median survival T/C
Assay: NCI In Vivo Anticancer Drug Screen. Data for tumor model B16 Melanoma (intraperitoneal) in B6C3F1 mice
Conditions: T/C endpoint: median survival time, higher T/C = longer survival
Outline: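 Transplantable tumor in mice; treated vs vehicle control groups; survival or tumor size measured; value = T/C ratio.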

[1] = dose: 400.0 mg/kg/injection, schedule: Q01DX009 (ip), vehicle: Klucel (hydroxypropylcellulose) (HPC)
[2] = dose: 6.25 mg/kg/injection, schedule: Q01DX009 (ip), vehicle: saline with Tween-80
[3] = dose: 12.5 mg/kg/injection, schedule: Q01DX009 (ip), vehicle: saline with Tween-80
[4] = dose: 400.0 mg/kg/injection, schedule: Q01DX009 (ip), vehicle: saline with Tween-80
[5] = dose: 100.0 mg/kg/injection, schedule: Q01DX009 (ip), vehicle: saline with Tween-80

## COc1cc(NS(C)(=O)=O)ccc1Nc1c2ccc(Cl)cc2nc2c(OC)cccc12
dose: 4.0 mg/kg/injection, schedule: Q01DX001 (ip), vehicle: water
  T/C: 125 % of control
dose: 4.0 mg/kg/injection, schedule: Q01DX005 (iv), vehicle: water
  survivor count: 9 of 10
dose: 8.0 mg/kg/injection, schedule: Q01DX001 (ip), vehicle: water
  T/C: 126 % of control
dose: 8.0 mg/kg/injection, schedule: Q01DX005 (iv), vehicle: water
  survivor count: 4 of 10
dose: 16.0 mg/kg/injection, schedule: Q01DX001 (ip), vehicle: water
  T/C: 142 % of control
dose: 16.0 mg/kg/injection, schedule: Q01DX005 (ip), vehicle: water
  survivor count: 10 of 10
dose: 16.0 mg/kg/injection, schedule: Q01DX005 (iv), vehicle: water
  survivor count: 0 of 10
dose: 32.0 mg/kg/injection, schedule: Q01DX001 (ip), vehicle: water
  T/C: 141 % of control
dose: 32.0 mg/kg/injection, schedule: Q01DX001 (iv), vehicle: water
  survivor count: 0 of 10

## CC(C)(C)N(C(=O)OCC1c2ccccc2-c2ccccc21)C(CO)C(=O)O (configuration not stated)
dose: 200.0 mg/kg/injection, schedule: Q01DX009 (ip), vehicle: Klucel (hydroxypropylcellulose) (HPC)
  survivor count: 10 of 10
[1]
  survivor count: 0 of 10

## O=C1CN(CO)C(=O)N1CO
[1]
  survivor count: 9 of 10

## CN(C)CCN1C(=O)c2cccc3cc([N+](=O)[O-])cc(c23)C1=O
dose: 3.13 mg/kg/injection, schedule: Q01DX009 (ip), vehicle: saline with Tween-80
  T/C: 144 % of control [9 of 10 alive]
dose: 6.0 mg/kg/injection, schedule: Q01DX009 (ip), vehicle: saline with Tween-80
  T/C: 140 % of control
[2]
  T/C: 139 % of control
[3]
  survivor count: 5 of 10

## CC(C)(O)/C=C/C(=O)[C@](C)(O)[C@H]1[C@H](O)C[C@@]2(C)[C@@H]3CC=C4[C@@H](C=C(O)C(=O)C4(C)C)[C@]3(C)C(=O)C[C@]12C
dose: 2.0 mg/kg/injection, schedule: Q01DX009 (ip), vehicle: water
  survivor count: 0 of 10
dose: 4.0 mg/kg/injection, schedule: Q01DX009 (ip), vehicle: water
  survivor count: 0 of 10

## Cc1ccc(NCC2(/N=C/c3ccccc3)OC(CO)C(O)C2O)cc1 (configuration not stated)
dose: 177.0 mg/kg/injection, schedule: Q01DX009 (ip), vehicle: Klucel (hydroxypropylcellulose) (HPC)
  T/C: 141 % of control
dose: 266.0 mg/kg/injection, schedule: Q01DX009 (ip), vehicle: Klucel (hydroxypropylcellulose) (HPC)
  T/C: 142 % of control
dose: 600.0 mg/kg/injection, schedule: Q01DX009 (ip), vehicle: Klucel (hydroxypropylcellulose) (HPC)
  survivor count: 3 of 10

## C1CN1P1(N2CC2)=NP(N2CC2)(N2CC2)=NP(N2CC2)(N2CC2)=N1
dose: 2.0 mg/kg/injection, schedule: Q01DX009 (ip), vehicle: Klucel (hydroxypropylcellulose) (HPC)
  T/C: 134 % of control
dose: 4.0 mg/kg/injection, schedule: Q01DX009 (ip), vehicle: Klucel (hydroxypropylcellulose) (HPC)
  T/C: 138 and 149 % of control
dose: 8.0 mg/kg/injection, schedule: Q01DX009 (ip), vehicle: Klucel (hydroxypropylcellulose) (HPC)
  T/C: 147 % of control
dose: 8.0 mg/kg/injection, schedule: Q02DX009 (ip), vehicle: Klucel (hydroxypropylcellulose) (HPC)
  T/C: 147 % of control
dose: 16.0 mg/kg/injection, schedule: Q01DX009 (ip), vehicle: Klucel (hydroxypropylcellulose) (HPC)
  survivor count: 9 of 10 and 10 of 10
dose: 16.0 mg/kg/injection, schedule: Q02DX009 (ip), vehicle: Klucel (hydroxypropylcellulose) (HPC)
  T/C: 138 % of control
dose: 32.0 mg/kg/injection, schedule: Q01DX009 (ip), vehicle: Klucel (hydroxypropylcellulose) (HPC)
  survivor count: 3 of 10 and 10 of 10
dose: 32.0 mg/kg/injection, schedule: Q02DX009 (ip), vehicle: Klucel (hydroxypropylcellulose) (HPC)
  survivor count: 9 of 10 and 10 of 10
dose: 64.0 mg/kg/injection, schedule: Q01DX009 (ip), vehicle: Klucel (hydroxypropylcellulose) (HPC)
  survivor count: 0 of 10 and 4 of 10
dose: 64.0 mg/kg/injection, schedule: Q02DX009 (ip), vehicle: Klucel (hydroxypropylcellulose) (HPC)
  survivor count: 3 of 10 and 9 of 10

## CC(C)(C)OC(=O)N1CCCC1C(=O)N1CCCC1C(=O)Oc1ccccc1 (configuration not stated)
[4]
  survivor count: 6 of 10

## C=C(C)[C@]12CC(C)C34OC(/C=C\C=C\CCCCCCCCC)(O[C@@H]1[C@@H]3[C@@H]1O[C@]1(CO)[C@@H](O)[C@]1(O)C(=O)C(C)=C[C@@H]41)O2 (some centres not stated)
dose: 0.75 mg/kg/injection, schedule: Q01DX009 (ip), vehicle: distilled water + alcohol
  survivor count: 4 of 10
dose: 1.5 mg/kg/injection, schedule: Q01DX009 (ip), vehicle: distilled water + alcohol
  survivor count: 0 of 10
dose: 3.0 mg/kg/injection, schedule: Q01DX009 (ip), vehicle: distilled water + alcohol
  survivor count: 0 of 10

## CN1CCN(Cc2nc3cccc4c3c([n+]2[O-])-c2ccccc2-4)CC1
[4]
  survivor count: 0 of 10

## Cn1cc(NC(=O)c2cc(NC(=O)c3cc(NC=O)cn3C)cn2C)cc1C(=O)NCCC(=N)N
dose: 12.5 mg/kg/injection, schedule: Q01DX009 (ip), vehicle: water, evaluated on day 52
  T/C: 145 % of control
dose: 12.5 mg/kg/injection, schedule: Q01DX009 (ip), vehicle: water, evaluated on day 60
  T/C: 97 and 105 % of control
dose: 25.0 mg/kg/injection, schedule: Q01DX009 (ip), vehicle: water, evaluated on day 52
  T/C: 125 % of control
dose: 25.0 mg/kg/injection, schedule: Q01DX009 (ip), vehicle: water, evaluated on day 60
  T/C: 101 [9 of 10 alive], 105, 106 % of control
dose: 50.0 mg/kg/injection, schedule: Q01DX009 (ip), vehicle: water, evaluated on day 52
  T/C: 129 % of control
dose: 50.0 mg/kg/injection, schedule: Q01DX009 (ip), vehicle: water, evaluated on day 60
  T/C: 89 (2×) and 101 % of control
dose: 100.0 mg/kg/injection, schedule: Q01DX009 (ip), vehicle: water
  survivor count: 10 of 10 (2×)
dose: 200.0 mg/kg/injection, schedule: Q01DX009 (ip), vehicle: water
  survivor count: 0 of 10

## CNC(=O)OCc1c(COC(=O)NC)c(-c2ccccc2)n(C)c1-c1ccccc1
dose: 3.12 mg/kg/injection, schedule: Q01DX009 (ip), vehicle: distilled water + Tween-80
  T/C: 128 % of control
dose: 6.25 mg/kg/injection, schedule: Q01DX009 (ip), vehicle: distilled water + Tween-80
  T/C: 140 % of control
dose: 50.0 mg/kg/injection, schedule: Q01DX009 (ip), vehicle: distilled water + Tween-80
  survivor count: 10 of 10
dose: 100.0 mg/kg/injection, schedule: Q01DX009 (ip), vehicle: distilled water + Tween-80
  survivor count: 7 of 10

## COC1C(O)C(C)OC(OC2C(Oc3cccc4c(O)c5c(=O)oc6ccc(C)c7c(=O)oc(c34)c5c67)OC(C)C(O)C2O)C1O (configuration not stated)
[2]
  T/C: 126 % of control
[3]
  T/C: 132 % of control
[5]
  T/C: 149 % of control

## NC(CCC(=O)NC(CS)C(=O)NCC(=O)O)C(=O)O (configuration not stated)
dose: 50.0 mg/kg/injection, schedule: Q01DX009 (ip), vehicle: saline, evaluated on day 52
  T/C: 113 % of control [9 of 10 alive]
dose: 50.0 mg/kg/injection, schedule: Q01DX009 (ip), vehicle: saline, evaluated on day 60
  T/C: 97 and 100 % of control
dose: 50.0 mg/kg/injection, schedule: Q01DX009 (ip), vehicle: saline
  survivor count: 10 of 10
dose: 100.0 mg/kg/injection, schedule: Q01DX009 (ip), vehicle: saline, evaluated on day 52
  T/C: 106 % of control
dose: 100.0 mg/kg/injection, schedule: Q01DX009 (ip), vehicle: saline, evaluated on day 60
  T/C: 93, 100, 102 % of control
dose: 200.0 mg/kg/injection, schedule: Q01DX009 (ip), vehicle: saline, evaluated on day 52
  T/C: 94 % of control
dose: 200.0 mg/kg/injection, schedule: Q01DX009 (ip), vehicle: saline, evaluated on day 60
  T/C: 91, 97, 101 % of control

## Cc1cc2c(C(C)C)c(O)c(O)c(C=NCCO)c2c(O)c1-c1c(C)cc2c(C(C)C)c(O)c(O)c(C=NCCO)c2c1O
dose: 200.0 mg/kg/injection, schedule: Q01DX009 (ip), vehicle: saline with Tween-80
  T/C: 140 % of control
[4]
  T/C: 131 % of control
  survivor count: 10 of 10

## [I][Hg][CH2]C1COC([CH2][Hg][I])CO1 (configuration not stated)
[5]
  survivor count: 3 of 10

Source: PubChem BioAssay AID200 (DTP/NCI, 2004)
